These results are taken from PubChem BioAssay AID1458 (National Center for Advancing Translational Sciences (NCATS), 2008).

The campaign covered roughly 210,000 compounds. About 5,900 (2.8%) were called active. About 5% were inconclusive and are not listed. The call rests on the fitted dose curve; in most records, active means well fitted activation curve with a large enough effect; inconclusive means small, poorly fitted or top-dose-only effect; inactive means no such curve, though single readings can be large or run the other way. Only a part is listed here, and it is no random draw. The source gives no active or inactive call for entries shown without one.
Potency means the concentration at half of the fitted maximal effect.

This assay is described as follows: qHTS Assay for Enhancers of SMN2 Splice Variant Expression. Further: nearly all actives have a fitted effect of over 55% in size. On activity change, positive = activation: % of control where 0% means no effect. The settings on record: HEK293 SMN2-luciferase splicing reporter, luminescence, 30-36 h; activity change, positive = activation: at 46.1 µM (top of the series) unless noted. An outline of the steps: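 HEK293 cells carry an SMN2 […]–luciferase reporter in which exon 7 inclusion puts luciferase in frame. Cells were plated 10-12 h before compound addition, then incubated 30-36 h at 37C. ONE-Glo luminescence was read; sodium butyrate at 4.5 mM final served as control.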
(qHTS replaces the single test concentration by a dilution series.)
As to `N#Cc1ccc(CSc2nnc(Cc3cccs3)n2Cc2ccco2)cc1`, the activity change, positive = activation stood at 39.2%. Same read-out and setting: the same measure for `CC(C)(C)NC[C@H](O)c1cc(O)cc(O)c1`: inactive: 14.6% [at 20.6 µM]; for `CCS(=O)(=O)N1Cc2ccccc2CC1C(=O)Nc1nnc(SCc2ccc(F)cc2)s1` (centres undefined): -87.8%. On to `CCc1nnc(NC(=O)CSc2nc3c(cc2C#N)CCC3)s1`, for which the Potency was active: 12.6 µM. On to `CCCC(=O)Nc1ccc(C(=O)N/N=C/c2ccc([N+](=O)[O-])o2)cc1`, for which the activity change, positive = activation is -91.5%.

In the case of `CCS(=O)(=O)c1ccc(C(=O)Nc2ccccc2)c(Cl)c1Cl`, the activity change, positive = activation was -76.7%. As to `Cc1ccc2[nH]c(=O)c(CN(CC3CCCO3)S(=O)(=O)c3cccc4nsnc34)cc2c1` (centres undefined), the activity change, positive = activation turned out to be 34%.

Regarding `O=[N+]([O-])c1cccc(/C([O-])=C(/C(=S)Nc2cccc3ccccc23)[n+]2ccccc2)c1`, the activity change, positive = activation was determined as 23.7%. Still for that read-out and setting: the result for `CS(=O)(=O)NCCSCc1ccccc1` reads 38.2%; that for `Cc1cccc(Nc2nc(-c3ccccc3)c(C(=O)Nc3cccnc3)s2)c1`, inactive: -91.7%. Still for that read-out and setting: the result for `CCCCOC(=O)c1ccc(NS(=O)(=O)c2c(C)nc3scc(C)n3c2=O)cc1` reads inactive: -41.7%. As to `O=C(Nc1ccc(-c2noc(-c3cccs3)n2)cc1)c1cccnc1`, the Potency was active: 1.26 µM. Regarding `CCCCC(=O)Nc1cccc(-c2nc3ncccc3o2)c1`, the “activity change, positive = activation” value was inactive: -28.6%. On the same count and under the same terms, the result for `Cc1ccc(CC(=O)Nc2nc3c(s2)CCCC3)cc1` reads 260%. Still for that read-out and setting: the result for `Cc1cccc(/C=C/c2ccccc2)n1` reads inactive: 0.477%; that for `CCSC1=N/C(=C\c2ccc3c(c2)OCO3)C(=O)S1`, -14.1%. The same measure, in the same setting: the result for `Cc1c(C=O)n(C)n(-c2ccccc2)c1=O` reads inactive: 22.8%. Consider `CC(Oc1ccccc1)C(=O)NC1=NCCS1` (centres undefined), for which the Potency was active: 14.1 µM.

Take `COc1cc2c(C(=O)N3CCN(c4ccccc4F)CC3)cn(C)c(=O)c2cc1OC`: the “activity change, positive = activation” value is inactive: -45.6%. Same read-out and setting: the same measure for `C=CCn1c(Cc2csc(N)n2)nnc1SCc1ccc(C(=O)OC)cc1`: 34.8%.

For `CCOC(=O)c1ccc(NC(=S)N(CCN(C)C)Cc2cccs2)cc1`, the Potency was active: 3.55 µM. For the molecule `COc1ccc(OC)c2[nH]c(=O)c(CCNC(=O)C(=O)c3c(C)[nH]c4ccccc34)cc12`, the activity change, positive = activation came out at 33.7%.

Consider `COC(=O)c1c(N)c2ccccc2[nH]c1=O`, for which the activity change, positive = activation is 39.9%. Same read-out and setting: the result for `Cn1cc([N+](=O)[O-])c(C(=O)Nc2nc(-c3ccc(Cl)cc3)cs2)n1` reads inactive: -58.1%; that for `Cc1cccc(Cn2c(SCc3ccc(C(=O)N4CCCCCC4)cc3)nc3ccncc32)c1`, inactive: -64.8%; that for `CCc1ccc2c(c1)c1nnc(NN)nc1n2CC`, inactive: -30%.

Regarding `COc1ccccc1-n1cc(-c2ccc(C)cc2)nc1S(=O)(=O)CC(=O)Nc1ccccc1C(F)(F)F`, the activity change, positive = activation worked out at 38%. Still for that read-out and setting: the same measure for `CCOC(=O)C1(CCSC)NC(c2ccco2)C2C(=O)N(CC)C(=O)C21` (centres undefined): 38.1%; for `O=[N+]([O-])c1ccc(Oc2cccc3cccnc23)c([N+](=O)[O-])c1`: -77.8%.
